Amino acid sequences for entries named in this document (tags omitted).
UniProt Q9LTB8: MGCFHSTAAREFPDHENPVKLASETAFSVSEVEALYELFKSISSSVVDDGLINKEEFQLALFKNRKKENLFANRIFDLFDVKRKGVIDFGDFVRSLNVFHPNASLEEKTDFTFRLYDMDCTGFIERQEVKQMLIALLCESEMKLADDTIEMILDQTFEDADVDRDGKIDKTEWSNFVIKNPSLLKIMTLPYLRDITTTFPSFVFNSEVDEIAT
UniProt O81445: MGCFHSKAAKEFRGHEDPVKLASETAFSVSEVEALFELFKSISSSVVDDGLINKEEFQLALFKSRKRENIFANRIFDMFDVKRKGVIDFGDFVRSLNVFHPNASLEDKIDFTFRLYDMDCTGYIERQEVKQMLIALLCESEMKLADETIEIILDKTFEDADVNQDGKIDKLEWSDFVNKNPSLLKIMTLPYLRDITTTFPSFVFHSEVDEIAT
UniProt Q7FRS8: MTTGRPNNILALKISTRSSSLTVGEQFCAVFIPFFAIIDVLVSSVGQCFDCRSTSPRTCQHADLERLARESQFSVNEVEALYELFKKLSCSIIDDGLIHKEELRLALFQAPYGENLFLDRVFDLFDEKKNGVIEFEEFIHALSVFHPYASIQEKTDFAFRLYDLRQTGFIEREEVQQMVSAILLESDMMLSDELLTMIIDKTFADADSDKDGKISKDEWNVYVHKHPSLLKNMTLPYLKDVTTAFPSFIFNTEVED
UniProt Q9SUA6: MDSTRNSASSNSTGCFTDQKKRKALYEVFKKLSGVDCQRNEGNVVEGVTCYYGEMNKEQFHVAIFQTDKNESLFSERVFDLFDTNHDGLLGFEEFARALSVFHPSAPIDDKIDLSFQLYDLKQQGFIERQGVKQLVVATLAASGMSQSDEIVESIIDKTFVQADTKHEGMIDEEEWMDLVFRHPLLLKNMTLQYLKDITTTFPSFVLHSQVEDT
UniProt Q9C5P6: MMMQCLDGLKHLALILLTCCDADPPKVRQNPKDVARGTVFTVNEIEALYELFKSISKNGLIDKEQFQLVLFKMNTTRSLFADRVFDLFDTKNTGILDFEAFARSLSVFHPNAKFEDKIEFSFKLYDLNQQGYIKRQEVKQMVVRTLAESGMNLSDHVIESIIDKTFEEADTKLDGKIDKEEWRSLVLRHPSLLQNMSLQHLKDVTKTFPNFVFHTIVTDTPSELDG
UniProt O81223: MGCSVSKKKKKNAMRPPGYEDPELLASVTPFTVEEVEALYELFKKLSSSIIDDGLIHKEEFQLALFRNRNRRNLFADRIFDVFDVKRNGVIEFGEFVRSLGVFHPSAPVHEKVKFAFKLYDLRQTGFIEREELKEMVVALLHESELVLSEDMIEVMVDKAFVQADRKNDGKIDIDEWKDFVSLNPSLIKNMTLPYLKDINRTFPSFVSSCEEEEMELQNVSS

In publication PMC5705611:

Columns and labels:
Test in all cases: two-hybrid; yeast AH109 with AD-CIPK3 splice variant and BD-CBL (CBL1-CBL10); spot dilution on SD-HLW + 0.5 mM 3AT and SD-HLW + 3 mM 3AT; strength also by ONPG-based beta-galactosidase assay (Miller Units)
[1] = molecular target: T1, BD-CBL5 (Calcineurin B-like protein 5) (Arabidopsis) (UniProt Q7FZF1)
T1 sequence: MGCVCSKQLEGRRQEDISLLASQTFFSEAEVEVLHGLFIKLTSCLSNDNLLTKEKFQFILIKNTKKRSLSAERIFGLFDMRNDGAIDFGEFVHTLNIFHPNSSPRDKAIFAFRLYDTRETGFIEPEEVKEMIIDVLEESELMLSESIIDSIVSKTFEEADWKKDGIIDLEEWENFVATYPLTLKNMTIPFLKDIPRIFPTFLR

[2] = molecular target: T2, BD-CBL8 (Calcineurin B-like protein 8) (Arabidopsis) (UniProt Q9FUQ7)
T2 sequence: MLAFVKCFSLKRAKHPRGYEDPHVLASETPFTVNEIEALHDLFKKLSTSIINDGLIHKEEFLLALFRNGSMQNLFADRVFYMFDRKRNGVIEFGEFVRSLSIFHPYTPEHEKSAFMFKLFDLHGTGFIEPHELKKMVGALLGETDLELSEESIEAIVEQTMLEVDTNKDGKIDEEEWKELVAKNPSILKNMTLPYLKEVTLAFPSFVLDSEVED

[3] = molecular target: BD-CBL9 (Calcineurin B-like protein 9) (Arabidopsis) (UniProt Q9LTB8)
[4] = molecular target: BD-CBL1 (Calcineurin B-like protein 1) (Arabidopsis) (UniProt O81445)
[5] = molecular target: BD-CBL10 (Calcineurin B-like protein 10) (Arabidopsis) (UniProt Q7FRS8)
[6] = molecular target: BD-CBL7 (Calcineurin B-like protein 7) (Arabidopsis) (UniProt Q9SUA6)
[7] = molecular target: BD-CBL6 (Calcineurin B-like protein 6) (Arabidopsis) (UniProt Q9C5P6)
[8] = molecular target: BD-CBL4 (Calcineurin B-like protein 4) (Arabidopsis) (UniProt O81223)

| binding [1] | binding [2] | binding [3] | binding [4] | binding [5] | binding [6] | binding [7] | binding [8] | Substance |
| --- | --- | --- | --- | --- | --- | --- | --- | --- |
| no binding | no binding | – | – | – | – | – | – | AD-CIPK3.3 (CBL-interacting protein kinase 3, splice variant CIPK3.3) (Arabidopsis thaliana) (enzyme) |
| no binding | no binding | – | – | – | – | – | – | AD-CIPK3.2 (CBL-interacting protein kinase 3, splice variant CIPK3.2) (Arabidopsis thaliana) (enzyme) |
| no binding | no binding | – | – | – | – | – | – | AD-CIPK3.1 (CBL-interacting protein kinase 3, splice variant CIPK3.1) (Arabidopsis thaliana) (enzyme) |
| no binding | no binding | binds | binds | no binding | no binding | binds weakly | no binding | AD-CIPK3.4 (CBL-interacting protein kinase 3, splice variant CIPK3.4) (from UniProt Q2V452-1) (enzyme) |

No constants are given. Whether binding was seen depends on the method and setting. For some assays here: Binding calls can cover weak binding; strength is not graded here. For some assays here: Tags and fused reporters may be left off the sequences shown.
